For part of these data: Weaker means in comparison with the reference protein, sequence or condition of that experiment. Tags and fusion partners may be left off the protein sequences shown. Construct, isoform or probe ends are uncertain for at least one entry. For part of these data: At least one verdict rests on a figure or table, not on a statement of the authors. For part of these data: Whether high values mean tight binding is not given here for every scale.
Experiments:
Assay in all cases: EMSA
[1] = target: T1, Ets-2 360-464 (core Ets domain) (Homo sapiens) (UniProt P15036); conditions: EMSA: 50 mM Tris-HCl pH 7.5, 25 mM NaCl, 50 mM L-arginine-HCl, 0.5 mM EDTA, 0.1% Tween 20, 2 mM DTT, 5% glycerol, room temperature 15 min, recombinant protein, residues 360-464, protein details: His tag removed by TEV, label: 5'-32P on strand 1
T1 sequence (looked up): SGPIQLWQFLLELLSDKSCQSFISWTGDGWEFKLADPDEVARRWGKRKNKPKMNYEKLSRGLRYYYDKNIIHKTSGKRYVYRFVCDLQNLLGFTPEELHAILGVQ

[2] = target: T2, Ets-2 325-464 (core Ets and autoinhibition domains) (Homo sapiens) (UniProt P15036); conditions: EMSA: 50 mM Tris-HCl pH 7.5, 25 mM NaCl, 50 mM L-arginine-HCl, 0.5 mM EDTA, 0.1% Tween 20, 2 mM DTT, 5% glycerol, room temperature 15 min, recombinant protein, residues 325-464, protein details: His tag removed by TEV, label: 5'-32P on strand 1
T2 sequence (looked up): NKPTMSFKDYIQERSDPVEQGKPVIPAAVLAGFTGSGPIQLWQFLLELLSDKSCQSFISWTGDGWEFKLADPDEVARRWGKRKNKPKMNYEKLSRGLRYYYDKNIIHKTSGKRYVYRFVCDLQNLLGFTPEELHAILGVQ

[3] = target: T3, Ets-1 medium (equivalent of Ets-2 325-464) (Mus musculus) (UniProt P27577); conditions: EMSA: 50 mM Tris-HCl pH 7.5, 25 mM NaCl, 50 mM L-arginine-HCl, 0.5 mM EDTA, 0.1% Tween 20, 2 mM DTT, 5% glycerol, room temperature 15 min; recombinant protein; protein details: His tag removed by TEV; label: 5'-32P on strand 1
T3 sequence (looked up, limits assumed): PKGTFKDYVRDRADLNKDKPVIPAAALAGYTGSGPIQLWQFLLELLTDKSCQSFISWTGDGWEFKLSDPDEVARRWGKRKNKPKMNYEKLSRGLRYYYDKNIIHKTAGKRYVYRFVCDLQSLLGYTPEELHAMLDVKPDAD

[4] = target: T4, Ets-2 308-469 (core, autoinhibition and serine-rich) (Homo sapiens) (UniProt P15036); conditions: serine-rich region present; EMSA: 50 mM Tris-HCl pH 7.5, 25 mM NaCl, 50 mM L-arginine-HCl, 0.5 mM EDTA, 0.1% Tween 20, 2 mM DTT, 5% glycerol, room temperature 15 min; recombinant protein; residues 308-469; protein details: His tag removed by TEV; label: 5'-32P on strand 1
T4 sequence (looked up): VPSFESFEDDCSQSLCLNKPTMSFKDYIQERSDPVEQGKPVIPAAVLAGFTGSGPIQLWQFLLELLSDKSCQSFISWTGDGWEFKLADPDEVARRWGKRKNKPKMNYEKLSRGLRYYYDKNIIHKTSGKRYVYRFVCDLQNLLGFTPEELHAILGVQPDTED

[5] = single and super-shifted species, lower apparent affinity than single site
[6] = almost identical to 7-bp, data not shown

AGCGGAAGTGACACTTCCGGA (double strand) [palindrome 7-bp spacer]
binding result [1, 5]: binds more weakly

AGCGGAAGTGACTTCCGGA (double strand) [palindrome 5-bp spacer]
binding result ([1]; no super-shifted band, lower apparent affinity than single site): binds more weakly | binding result ([2]; non-cooperative, 1:1 only, no super-shift, lower apparent affinity than single site): binds more weakly

AGCGGAAGTGATCACTTCCGGA (double strand) [palindrome 8-bp spacer]
binding result [1, 6]: binds more weakly | binding result [2, 6]: binds more weakly

ATCTCACCGGAAGTGTAGCA (double strand) [single-site EMSA probe]
binding signal (fold reduction in affinity vs P4) [3]: 5 | binding signal (fold inhibition) [4]: 10 | binding signal (fold Kd vs P1) ([2]; no noticeable difference from construct without N-terminal module): 1

AGCGGAAGTGCACTTCCGGA (double strand) [palindrome 6-bp spacer]
binding result [1, 5]: binds more weakly | binding result ([2]; 1:1 and 2:1, some cooperativity, lower apparent affinity than single site): binds more weakly

AGCGGAAGTACTTCCGGA (double strand) [palindrome 4-bp spacer]
binding result ([1]; lower apparent affinity than single site): binds more weakly | binding result ([2]; exclusively cooperative, presumed 2:1, lower apparent affinity than single site): binds more weakly

Reference: paper PMC4375503, “Structural Insights into the Autoregulation and Cooperativity of the Human Transcription Factor Ets-2*”
